Results reported in the supplement of paper PMC10689618.
Structures can show the parent of a compound that is named as a salt. This is one part of the list. Many values rest on one well or one pass, so single values are uncertain.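 Primary human fetal astrocytes engulfed labelled rat cortical synaptosomes, measured as a red/green ratio corrected for calcein live-cell signal and scaled to the plate median. Toxicity meant calcein falling over 30%; decreased phagocytosis meant below 70% of median above 5 µM.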

Columns and labels:
[1] = test system: Human fetal astrocytes; assay: loss of total cells relative to no-compound high-control median (toxicity); higher = more toxic (fewer cells); details: 24 h
[2] = test system: Human fetal astrocytes; assay: synaptosome phagocytosis (pHrodo/calcein intensity ratio) relative to plate median of data wells; higher = more phagocytosis; details: 24 h

| SMILES | loss of total cells ([1]; 1.39 µM) [%] | loss of total cells ([1]; 2.78 µM) [%] | loss of total cells ([1]; 5.56 µM) [%] | loss of total cells ([1]; 11.11 µM) [%] | loss of total cells ([1]; 22.22 µM) [%] | synaptosome phagocytosis ([2]; 1.39 µM) [%] | synaptosome phagocytosis ([2]; 2.78 µM) [%] | synaptosome phagocytosis ([2]; 5.56 µM) [%] | synaptosome phagocytosis ([2]; 11.11 µM) [%] | synaptosome phagocytosis ([2]; 22.22 µM) [%] |
| --- | --- | --- | --- | --- | --- | --- | --- | --- | --- | --- |
| CS(=O)(=O)c1ccc(C2=C(c3ccccc3)C(=O)OC2)cc1 | 38.7 | -21.4 | -6.2 | 18.7 | 4.7 | 159 | 110 | 117 | 116 | 112 |
| CC(C)(C)NCC(O)COc1cccc2c1CC(O)C(O)C2 (stereo not given) | 23.4 | -46.8 | 15.5 | 35.1 | 13.4 | 162 | 111 | 111 | 125 | 136 |
| Cc1c[nH]c2ccccc12 | 30.7 | 17 | 12.3 | 7.9 | 16.7 | 116 | 123 | 115 | 88.3 | 104 |
| Cc1onc(-c2ccccc2)c1C(=O)N[C@@H]1C(=O)N2[C@@H]1SC(C)(C)[C@@H]2C(=O)O | -9.1 | -7 | 10.5 | -12.5 | 8.5 | 109 | 101 | 104 | 97.6 | 95.7 |
| CC(=O)O[C@]1(C(C)=O)CC[C@H]2[C@@H]3C[C@H](C)C4=CC(=O)CC[C@]4(C)[C@H]3CC[C@@]21C | 0.9 | -26.8 | 0 | -8.4 | -14.9 | 130 | 83.4 | 83.1 | 119 | 84.4 |
| COC(=O)[C@H]1[C@H]2C[C@H]3c4[nH]c5ccccc5c4CCN3C[C@H]2CC[C@@H]1O [Rauwolscine hydrochloride] | -16.4 | 0.4 | -3.7 | 12.8 | 4.4 | 148 | 91.9 | 124 | 109 | 81.5 |
| Cn1c(=O)[nH]c(=O)c2[nH]cnc21 | -13.9 | -9.7 | -5.1 | 8.8 | 15.6 | 116 | 81.1 | 104 | 110 | 105 |
| CC1(O)CCOC(=O)C1 (stereo not given) | 1.1 | 6.9 | 2.2 | 13 | 7.6 | 127 | 90.1 | 113 | 67.7 | 98.3 |
| CC(C)C[C@@H]1NC(=O)[C@H](CCCN)NC(=O)[C@H](C(C)C)NC(=O)[C@H](Cc2ccc(O)cc2)N[C@@H](CCC(=O)O)C(=O)N[C@@H](CC(N)=O)C(=O)[C@@H](Cc2ccccc2)NC(=O)[C@H](Cc2ccccc2)NC(=O)[C@@H]2CCCN2C(=O)[C@@H](Cc2ccccc2)NC1=O | 33.5 | 30.8 | 40.4 | 96.5 | 104 | 50.3 | 45.3 | 27.7 | 43.4 | 0 |
| CCn1cc(C(=O)O)c(=O)c2cnc(N3CCNCC3)nc21 | 1.1 | -1.1 | 7.2 | -2.1 | 9.8 | 94.5 | 81.5 | 82.4 | 97.7 | 126 |
| C[C@]12C=CC(=O)C=C1CC[C@@H]1[C@@H]2[C@@H](O)C[C@@]2(C)[C@H]1CC[C@]2(O)C(=O)COC(=O)CCC(=O)O | 21.8 | -25.4 | 9.3 | 5.6 | -5.3 | 123 | 77.7 | 102 | 80.1 | 89.2 |
| OC1C(O)C(O)C(O)C(O)C1O (stereo not given) | 6.8 | -17.3 | -13.2 | -0.3 | 43.5 | 112 | 134 | 133 | 114 | 108 |
| CCC(C)C(=O)OC1[C@@H]2CC3=C4CC(=O)O[C@@H](c5ccoc5)[C@]4(C)CCC3[C@@](C)(C2=O)[C@@H](CC(=O)OC)C1(C)C (stereo not given in full) | 9.7 | -0.4 | 16.7 | 1.3 | 6.8 | 82.7 | 97 | 101 | 94.5 | 150 |
| CC1(C)S[C@@H]2[C@H](NC(=O)[C@H](NC(=O)N3CCNC3=O)c3ccccc3)C(=O)N2[C@H]1C(=O)O | -31.5 | -1.5 | 6.9 | -3.9 | 9.6 | 119 | 87 | 102 | 107 | 98.3 |
| NS(=O)(=O)c1cc2c(cc1C(F)(F)F)NC(Cc1ccccc1)NS2(=O)=O (stereo not given) | -33.1 | -20.6 | 12.4 | 38.4 | 11.5 | 105 | 112 | 130 | 162 | 122 |
| CC(C)NCC(O)c1ccc2ccccc2c1 (stereo not given) | 17 | 11.2 | 18.8 | -11.3 | 9.1 | 114 | 88.5 | 105 | 88.1 | 83.5 |
| COc1cc(-c2oc3cc(O)ccc3c(=O)c2O)ccc1O | -3.3 | 4 | 10.3 | 2 | 1.5 | 119 | 115 | 87.5 | 105 | 109 |
| CN(C(=O)C(Cl)Cl)c1ccc(OC(=O)c2ccco2)cc1 | -29 | -28.6 | -3.1 | -8.2 | 8.4 | 93.9 | 106 | 97.9 | 77.8 | 107 |
| CCCCCCCCCCCCC[N+](C)(C)Cc1ccccc1 | -24.2 | -20.6 | 18 | 25.9 | 56.4 | 104 | 90.8 | 108 | 58.4 | 20.5 |
| COc1cc(O)cc(OC)c1OC | -12 | 2.7 | -12.2 | 1.3 | 15.9 | 96.9 | 93.7 | 69.3 | 93.4 | 90.6 |
| Oc1cc2c(cc1O)C1c3ccc(O)c(O)c3OCC1(O)C2 (stereo not given) | -18.5 | -4.7 | 30.5 | 37.4 | 30.7 | 96.1 | 116 | 106 | 80.5 | 95.6 |

Three entries drawn at random from those above:

| SMILES | loss of total cells ([1]; 1.39 µM) [%] | loss of total cells ([1]; 2.78 µM) [%] | loss of total cells ([1]; 5.56 µM) [%] | loss of total cells ([1]; 11.11 µM) [%] | loss of total cells ([1]; 22.22 µM) [%] | synaptosome phagocytosis ([2]; 1.39 µM) [%] | synaptosome phagocytosis ([2]; 2.78 µM) [%] | synaptosome phagocytosis ([2]; 5.56 µM) [%] | synaptosome phagocytosis ([2]; 11.11 µM) [%] | synaptosome phagocytosis ([2]; 22.22 µM) [%] |
| --- | --- | --- | --- | --- | --- | --- | --- | --- | --- | --- |
| NS(=O)(=O)c1cc2c(cc1C(F)(F)F)NC(Cc1ccccc1)NS2(=O)=O (stereo not given) | -33.1 | -20.6 | 12.4 | 38.4 | 11.5 | 105 | 112 | 130 | 162 | 122 |
| Cn1c(=O)[nH]c(=O)c2[nH]cnc21 | -13.9 | -9.7 | -5.1 | 8.8 | 15.6 | 116 | 81.1 | 104 | 110 | 105 |
| CC(C)C[C@@H]1NC(=O)[C@H](CCCN)NC(=O)[C@H](C(C)C)NC(=O)[C@H](Cc2ccc(O)cc2)N[C@@H](CCC(=O)O)C(=O)N[C@@H](CC(N)=O)C(=O)[C@@H](Cc2ccccc2)NC(=O)[C@H](Cc2ccccc2)NC(=O)[C@@H]2CCCN2C(=O)[C@@H](Cc2ccccc2)NC1=O | 33.5 | 30.8 | 40.4 | 96.5 | 104 | 50.3 | 45.3 | 27.7 | 43.4 | 0 |

Following part:

| SMILES | loss of total cells ([1]; 1.39 µM) [%] | loss of total cells ([1]; 2.78 µM) [%] | loss of total cells ([1]; 5.56 µM) [%] | loss of total cells ([1]; 11.11 µM) [%] | loss of total cells ([1]; 22.22 µM) [%] | synaptosome phagocytosis ([2]; 1.39 µM) [%] | synaptosome phagocytosis ([2]; 2.78 µM) [%] | synaptosome phagocytosis ([2]; 5.56 µM) [%] | synaptosome phagocytosis ([2]; 11.11 µM) [%] | synaptosome phagocytosis ([2]; 22.22 µM) [%] |
| --- | --- | --- | --- | --- | --- | --- | --- | --- | --- | --- |
| CCC(Cc1c(I)cc(I)c(N)c1I)C(=O)O (stereo not given) | -26.6 | -17.5 | -3.1 | 45.6 | 10.9 | 105 | 80.4 | 102 | 137 | 106 |
| Cc1cccc(N(C)C(=S)Oc2ccc3ccccc3c2)c1 | -23.2 | -7.6 | -8.1 | -10.2 | 33.4 | 114 | 104 | 96.8 | 111 | 75.1 |
| O=c1cc(-c2ccc(O)cc2)oc2ccc(O)cc12 | -19.7 | -5.4 | -1.5 | 0 | 4.4 | 122 | 85.7 | 123 | 74.2 | 104 |
| CN[C@@H]1[C@@H](O)[C@@H](O[C@@H]2[C@@H](O)[C@H](O[C@H]3OC(CN)=CC[C@H]3N)[C@@H](N)C[C@H]2N)OC[C@]1(C)O | 2.1 | -25.4 | -5.6 | 22.8 | -41.6 | 96.6 | 134 | 103 | 105 | 106 |
| CN(C)CCCSC(=N)N | -3.3 | -12.6 | 17.6 | 31.1 | 21.5 | 98.7 | 83.1 | 115 | 79 | 102 |
| NCC(=O)CCC(=O)O | -15.8 | -20.4 | 14.1 | -21.1 | 15.3 | 95.7 | 83.1 | 89.6 | 120 | 93.9 |
| COc1ccc(-c2coc3cc(O)ccc3c2=O)cc1 | 37.3 | 20.6 | 2.3 | 33.5 | -5.6 | 124 | 113 | 74.4 | 105 | 83.6 |
| C/C(=C\CO)CC[C@H](C)CCC[C@H](C)CCCC(C)C | 4.9 | 11.9 | 13.9 | 25.7 | 8.1 | 124 | 121 | 123 | 93.6 | 90 |
| O=C(O)[C@]1(O)C[C@@H](O)[C@@H](O)[C@H](O)C1 | -4.9 | -4.7 | 0.7 | -5.4 | 3.7 | 105 | 105 | 92.2 | 124 | 97.5 |
| COc1c(O)cc2oc3cc(O)c(CC=C(C)C)c(O)c3c(=O)c2c1CC=C(C)C | -19.7 | -11.9 | -11 | 35.8 | 65.9 | 125 | 120 | 114 | 50.2 | 12 |
| O=S(=O)(O)c1cc(N=C=S)ccc1/C=C/c1ccc(N=C=S)cc1S(=O)(=O)O | 3.3 | 16.2 | 8.8 | 34.5 | 47.4 | 121 | 129 | 92 | 134 | 174 |
| CCn1cc(C(=O)O)c(=O)c2cc(F)c(N3CCNCC3)cc21 | 10.8 | -25.9 | 3.9 | -19.5 | -6.8 | 98.2 | 101 | 108 | 106 | 103 |
| NC(=O)CCCCC1CCSS1 (stereo not given) | 7.6 | 4 | 7.2 | 7.9 | 21.2 | 82.1 | 123 | 126 | 125 | 99 |
| CC1CC(OC(=O)c2ccccc2O)CC(C)(C)C1 (stereo not given) | -10.8 | -3.4 | -13.5 | -35.2 | 6.8 | 121 | 103 | 85.7 | 135 | 118 |
| O=C(O)[C@H](O)[C@@H](O)[C@H](O[C@@H]1O[C@H](CO)[C@H](O)[C@H](O)[C@H]1O)[C@H](O)CO | 8.3 | 18.4 | 8.7 | -1.3 | 9.8 | 94.3 | 74.9 | 112 | 108 | 116 |
| CON | -18.9 | 9 | -3.7 | 5.4 | 3 | 128 | 116 | 103 | 117 | 71.9 |
| Cc1nc2sccn2c(=O)c1CCN1CCC(=C(c2ccc(F)cc2)c2ccc(F)cc2)CC1 [Ritanserin] | -39.5 | -50 | -9.3 | -8.9 | 12.8 | 94.8 | 67.9 | 89.3 | 69.3 | 57.1 |
| CC12CCC(CC1)C(C)(C)O2 | 8.3 | 14.1 | 2.2 | 2.1 | 16.7 | 106 | 146 | 106 | 108 | 143 |
| CO[C@H]1C[C@@H]2CC[C@@H](C)[C@@](O)(O2)C(=O)C(=O)N2CCCC[C@H]2C(=O)O[C@H]([C@H](C)C[C@@H]2CC[C@@H](O)[C@H](OC)C2)CC(=O)[C@H](C)/C=C(\C)[C@@H](O)[C@@H](OC)C(=O)[C@H](C)C[C@H](C)/C=C/C=C/C=C/1C | -8.9 | 30.2 | 8.1 | 49.5 | 4.7 | 60.6 | 147 | 86.7 | 145 | 112 |
| Nc1ccc(S(=O)(=O)O)cc1.Nc1ccc(S(=O)(=O)O)cc1.[Zn] | 17.7 | -23 | -2.5 | -1.6 | -7.8 | 148 | 118 | 98.8 | 109 | 103 |
